These results are taken from article PMC8093829.

By UniProt entry, the sequences of proteins in these tests, tags left out. Residues count along the entry.
UniProt P00805, residues 23-348: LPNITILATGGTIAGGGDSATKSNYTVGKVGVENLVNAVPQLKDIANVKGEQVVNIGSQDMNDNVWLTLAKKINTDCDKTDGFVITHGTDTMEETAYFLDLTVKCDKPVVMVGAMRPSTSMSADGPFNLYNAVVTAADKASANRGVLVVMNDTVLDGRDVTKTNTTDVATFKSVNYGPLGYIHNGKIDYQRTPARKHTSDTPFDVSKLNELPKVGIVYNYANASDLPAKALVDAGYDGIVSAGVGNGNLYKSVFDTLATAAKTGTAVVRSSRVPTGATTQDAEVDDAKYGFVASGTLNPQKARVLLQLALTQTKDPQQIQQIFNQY

No constants are given. Whether binding was seen depends on the method and setting. Some results given as binding are weak or reduced against the parent protein; the word gives no strength.

In the assay the target is recombinant L-asparaginase refolded from E. coli inclusion bodies (UniProt P00805). Description: SEC; HPLC, TSK gel G3000SWxl, 20 mM Tris-HCl and 100 mM NaCl; refolded L-asparaginase concentrated to 2 mg/ml, after freeze-thaw solubilization in 2 M urea with DTT, without DTT, or in 8 M urea; from washed inclusion bodies, no chromatography before; both purified. For orientation: Size exclusion chromatography separates by hydrodynamic size, large species first.

For the substance “recombinant L-asparaginase refolded from E. coli inclusion bodies (from UniProt P00805 23-348) (enzyme)”, the binding entry is “binds weakly”.
